Reference: patent publication US20030219427A1, “TPL-2/COT kinase and methods of use” (priority 1998, published 2003)
Results are given in words; binding and its absence hold for the method and conditions named. Some entries that bind do so weakly or less than the wild type.

Molecular target: T1, recombinant p105498-969 protein (Homo sapiens (Human)) (UniProt P19838)
T1 sequence: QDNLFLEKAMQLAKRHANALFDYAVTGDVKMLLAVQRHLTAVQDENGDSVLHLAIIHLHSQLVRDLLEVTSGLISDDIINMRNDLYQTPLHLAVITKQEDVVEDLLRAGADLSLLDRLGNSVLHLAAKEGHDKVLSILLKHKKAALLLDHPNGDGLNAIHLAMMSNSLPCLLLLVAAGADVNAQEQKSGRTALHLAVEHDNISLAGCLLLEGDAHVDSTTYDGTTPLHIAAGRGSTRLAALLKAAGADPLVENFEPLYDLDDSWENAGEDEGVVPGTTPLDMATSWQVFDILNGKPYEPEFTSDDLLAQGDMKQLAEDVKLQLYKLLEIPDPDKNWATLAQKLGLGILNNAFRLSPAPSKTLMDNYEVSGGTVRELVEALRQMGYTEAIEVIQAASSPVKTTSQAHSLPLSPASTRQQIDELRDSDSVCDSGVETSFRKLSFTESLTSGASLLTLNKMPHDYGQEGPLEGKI
Assay: trypsin digestion of p105 498-969 with and without the peptide

B1: synthetic peptide corresponding to the C-terminal 70 amino acids of TPL-2 (residues 398-467) (peptide)
peptide: CTSLDSALLERKRLLSRKELELPENIADSSCTGSTEESEMLKRQRSLYIDLGALAGYFNLVRGPPTLEYG
Question: Which binding does the source give for B1 here?
Answer: binds
